# Values from PubChem BioAssay AID504764 (Drosophila RNAi Screening Center, 2011).
# Aim: 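Knock-downs that raise or lower a Notch target reporter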 (primary screen)
# System: Drosophila Kc167 cells
# Reagents: long dsRNA against Drosophila genes
# Timing: about 5 days (4 days dsRNA, then 24 h after transfection)
# Treatment: transfection of constitutively active membrane-tethered Notch lacking the extracellular domain, read 24 h later
# Read-out: 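Light from a Notch-responsive E(spl)m3 luciferase reporter under active Notch, with control-promoter and no-Notch reporter wells to normalise; raw counts from paired wells a and b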
# Scale: induced reporter light, run 1, well a and induced reporter light, run 1, well b: higher = more light from the Notch target reporter with active Notch; control promoter light, run 1, well a and control promoter light, run 1, well b: higher = more light from the viral control promoter (cell number, transfection, viability); uninduced reporter light, run 1, well a: higher = more light from the Notch target reporter without active Notch
# Rule for the call: 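Wells with low control signal or poorly matching duplicates excluded; duplicates averaged; per source plate, z beyond ±2 for induced/control log2 ratio or beyond ±1.8 for induced/uninduced marks a hit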
# Calls: active = modifier hit (raised or lowered Notch signal); inactive = not a hit
# The screen tested about 22,000 reagents; this is an unselected part of those with a known target gene and a result. In the full data, 403 (1.9%) are marked active. 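Unnormalised raw counts per well; ratio z-scores behind the hit calls and whether each hit raises or lowers signal are not deposited.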 Names joined by + are all predicted targets of the reagent. Reagent sequences are not shown. Not given: the amount of reagent.
gene,amplicon,"induced reporter light, run 1, well a","induced reporter light, run 1, well b","control promoter light, run 1, well a","control promoter light, run 1, well b","uninduced reporter light, run 1, well a",activity call
CG42354 + CG42353,DRSC20172,60575,41815,44995,33170,7392,inactive
CG5767,DRSC06953,50190,43645,49950,37185,2832,inactive
CG14110,DRSC10113,2.26e5,1.79e5,2.10e5,1.84e5,13878,inactive
CG13743,DRSC05139,1.27e5,1.22e5,1.97e5,1.88e5,4978,inactive
CG13743,DRSC06414,46885,37860,36335,37685,6365,inactive
Hsp67Bc (Heat shock gene 67Bc),DRSC11193,1.70e5,1.67e5,2.77e5,1.93e5,10855,inactive
CG10657,DRSC09768,1.34e5,1.10e5,71460,43950,8665,inactive
grk (gurken),DRSC03540,2.48e5,2.26e5,2.18e5,1.57e5,20565,inactive
Incenp (Inner centromere protein),DRSC06116,2.23e5,1.88e5,1.50e5,1.75e5,13725,inactive
Incenp (Inner centromere protein),DRSC21950,,,,,,active
Gprk1 (G protein-coupled receptor kinase 1),DRSC20732,2.15e5,2.12e5,2.74e5,2.97e5,15788,inactive
Gprk1 (G protein-coupled receptor kinase 1),DRSC20916,2.51e5,1.88e5,3.45e5,3.23e5,15010,inactive
BOD1 (Biorientation Defective 1),DRSC15824,1.85e5,2.05e5,2.39e5,2.28e5,14230,inactive
ND-ASHI (NADH dehydrogenase (ubiquinone) ASHI subunit),DRSC18291,1.49e5,1.67e5,2.35e5,2.00e5,8742,inactive
MFS10 (Major Facilitator Superfamily Transporter 10),DRSC19888,1.76e5,1.89e5,2.56e5,2.04e5,11125,inactive
CG17633,DRSC02631,1.28e5,1.61e5,71960,1.02e5,19120,inactive
CG14143,DRSC10146,1.07e5,1.24e5,1.71e5,1.27e5,5870,inactive
mkg-p + Tpt,DRSC10777,80775,86395,52625,26925,6720,inactive
CG4328,DRSC10410,11795,10838,20560,14630,5065,inactive
CG13872,DRSC06431,68340,44255,43720,42945,5505,inactive

Records above whose target name starts with I or i:
gene,amplicon,"induced reporter light, run 1, well a","induced reporter light, run 1, well b","control promoter light, run 1, well a","control promoter light, run 1, well b","uninduced reporter light, run 1, well a",activity call
Incenp (Inner centromere protein),DRSC06116,2.23e5,1.88e5,1.50e5,1.75e5,13725,inactive
Incenp (Inner centromere protein),DRSC21950,,,,,,active
